Some of the results follow.
These targets were tested with CN(C)CC(=O)Nc1ccc2[nH]c(=O)c3ccccc3c2c1 (assay: log2 fold change, soluble protein after heating vs DMSO (PISA); higher = thermal stabilisation; K562 cells, 10 uM, 30 min; active = over 0.2 and 3.5 SD of the protein, either way, in both replicates (recomputed)).
Procedure, shortened: (§1)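 Quantification of soluble protein used TMTpro 16plex LC-MS/MS, with channel sums equalised. Samples were the supernatant after 21,000xg for 90 min of pooled aliquots from K562 cells (2×10^6 cells/mL) treated with 10 μM compound for 30 min, heated for 3 min over 48°C-58°C, and extracted in PBS with 0.5% NP-40 at 4°C. Values, from duplicates, describe thermal stability against control samples on a log2 fold-change scale.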

By UniProt entry, the sequences of proteins in these tests, tags left out. Where a name states a change or a piece, a line headed by the entry shows the natural chain unless it says otherwise.
UniProt P55145: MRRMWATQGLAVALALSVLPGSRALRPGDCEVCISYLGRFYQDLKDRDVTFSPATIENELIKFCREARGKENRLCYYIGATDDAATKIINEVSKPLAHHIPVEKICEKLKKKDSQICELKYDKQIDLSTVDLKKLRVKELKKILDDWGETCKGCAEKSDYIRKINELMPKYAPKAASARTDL
UniProt O43325: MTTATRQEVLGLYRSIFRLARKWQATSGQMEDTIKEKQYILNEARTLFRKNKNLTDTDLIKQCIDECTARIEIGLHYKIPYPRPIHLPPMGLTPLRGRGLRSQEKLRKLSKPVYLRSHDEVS
UniProt Q14244: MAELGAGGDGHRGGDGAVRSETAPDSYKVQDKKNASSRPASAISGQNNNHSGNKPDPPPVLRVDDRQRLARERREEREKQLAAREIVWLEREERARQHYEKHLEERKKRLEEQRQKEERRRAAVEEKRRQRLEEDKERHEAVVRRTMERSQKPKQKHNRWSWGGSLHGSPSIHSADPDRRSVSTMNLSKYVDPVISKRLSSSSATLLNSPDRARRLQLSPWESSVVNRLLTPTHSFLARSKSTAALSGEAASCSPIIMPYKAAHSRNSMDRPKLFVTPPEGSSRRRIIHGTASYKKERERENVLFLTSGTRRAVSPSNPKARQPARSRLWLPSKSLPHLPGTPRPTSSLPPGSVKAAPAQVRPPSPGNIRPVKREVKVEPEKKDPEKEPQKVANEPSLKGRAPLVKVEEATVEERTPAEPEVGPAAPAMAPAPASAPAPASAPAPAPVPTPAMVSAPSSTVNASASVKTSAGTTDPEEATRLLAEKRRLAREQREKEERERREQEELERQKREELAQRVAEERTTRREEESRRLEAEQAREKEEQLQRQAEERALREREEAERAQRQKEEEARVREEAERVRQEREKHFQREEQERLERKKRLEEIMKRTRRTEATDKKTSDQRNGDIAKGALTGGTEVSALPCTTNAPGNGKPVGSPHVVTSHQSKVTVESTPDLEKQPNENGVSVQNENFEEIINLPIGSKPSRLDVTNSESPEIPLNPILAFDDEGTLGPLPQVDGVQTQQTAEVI
UniProt Q9H0U3: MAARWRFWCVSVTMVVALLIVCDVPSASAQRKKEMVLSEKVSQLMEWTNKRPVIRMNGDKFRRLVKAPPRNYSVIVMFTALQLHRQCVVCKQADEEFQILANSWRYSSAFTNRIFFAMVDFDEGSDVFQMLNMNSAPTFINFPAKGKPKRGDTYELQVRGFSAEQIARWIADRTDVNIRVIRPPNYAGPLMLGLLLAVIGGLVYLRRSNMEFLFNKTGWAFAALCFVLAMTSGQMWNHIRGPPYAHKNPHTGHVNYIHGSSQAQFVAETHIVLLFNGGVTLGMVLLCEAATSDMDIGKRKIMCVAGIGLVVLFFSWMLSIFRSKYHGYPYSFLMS
UniProt Q9Y608: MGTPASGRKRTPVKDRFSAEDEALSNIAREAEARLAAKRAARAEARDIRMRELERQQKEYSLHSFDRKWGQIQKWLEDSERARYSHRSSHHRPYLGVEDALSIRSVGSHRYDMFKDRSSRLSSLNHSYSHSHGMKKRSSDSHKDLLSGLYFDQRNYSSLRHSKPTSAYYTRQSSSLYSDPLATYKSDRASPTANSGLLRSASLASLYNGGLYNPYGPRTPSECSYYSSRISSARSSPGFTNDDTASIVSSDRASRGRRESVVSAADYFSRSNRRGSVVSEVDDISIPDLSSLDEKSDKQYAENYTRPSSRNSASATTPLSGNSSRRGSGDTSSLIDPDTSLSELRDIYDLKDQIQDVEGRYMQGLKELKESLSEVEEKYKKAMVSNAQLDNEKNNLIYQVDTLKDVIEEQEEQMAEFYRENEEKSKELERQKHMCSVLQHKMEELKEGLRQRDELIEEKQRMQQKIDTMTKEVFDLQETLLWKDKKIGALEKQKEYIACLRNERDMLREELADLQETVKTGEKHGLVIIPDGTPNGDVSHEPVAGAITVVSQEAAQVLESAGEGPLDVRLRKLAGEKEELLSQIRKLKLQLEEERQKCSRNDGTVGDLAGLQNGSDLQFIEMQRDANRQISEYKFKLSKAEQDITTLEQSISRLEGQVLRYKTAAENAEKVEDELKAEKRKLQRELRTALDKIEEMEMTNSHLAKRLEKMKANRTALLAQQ
UniProt Q9NTJ4: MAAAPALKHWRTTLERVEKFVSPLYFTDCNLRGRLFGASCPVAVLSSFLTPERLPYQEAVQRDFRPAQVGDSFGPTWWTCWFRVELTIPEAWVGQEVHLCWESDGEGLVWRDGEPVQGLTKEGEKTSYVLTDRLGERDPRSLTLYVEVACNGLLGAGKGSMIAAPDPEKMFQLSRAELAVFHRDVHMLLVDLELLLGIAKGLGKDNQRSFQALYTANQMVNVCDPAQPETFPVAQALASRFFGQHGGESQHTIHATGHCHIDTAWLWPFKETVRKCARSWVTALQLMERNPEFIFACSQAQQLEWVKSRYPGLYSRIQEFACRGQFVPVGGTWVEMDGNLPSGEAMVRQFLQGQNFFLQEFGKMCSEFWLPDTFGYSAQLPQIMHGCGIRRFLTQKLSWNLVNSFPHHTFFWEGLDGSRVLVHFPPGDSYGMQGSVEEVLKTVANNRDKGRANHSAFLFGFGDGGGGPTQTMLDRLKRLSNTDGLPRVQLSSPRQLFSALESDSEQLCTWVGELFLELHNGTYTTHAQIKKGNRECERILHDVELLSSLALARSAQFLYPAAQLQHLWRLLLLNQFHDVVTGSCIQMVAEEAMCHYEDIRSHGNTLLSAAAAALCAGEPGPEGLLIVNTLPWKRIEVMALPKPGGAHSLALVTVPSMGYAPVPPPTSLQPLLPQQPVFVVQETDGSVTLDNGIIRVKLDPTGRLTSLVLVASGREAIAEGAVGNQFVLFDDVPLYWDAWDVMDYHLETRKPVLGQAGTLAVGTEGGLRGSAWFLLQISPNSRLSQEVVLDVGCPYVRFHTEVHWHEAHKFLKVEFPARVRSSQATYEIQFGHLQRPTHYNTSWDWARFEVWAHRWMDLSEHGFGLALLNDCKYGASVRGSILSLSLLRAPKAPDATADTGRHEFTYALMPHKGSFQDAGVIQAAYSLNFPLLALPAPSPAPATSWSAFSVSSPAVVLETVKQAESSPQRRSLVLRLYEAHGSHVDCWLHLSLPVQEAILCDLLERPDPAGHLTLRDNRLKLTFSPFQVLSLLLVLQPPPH
UniProt Q9Y4Z0: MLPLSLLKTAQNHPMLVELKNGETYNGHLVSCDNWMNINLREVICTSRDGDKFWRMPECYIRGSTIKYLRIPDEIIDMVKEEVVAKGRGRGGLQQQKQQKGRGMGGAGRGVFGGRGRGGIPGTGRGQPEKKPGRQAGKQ
UniProt Q9UK45: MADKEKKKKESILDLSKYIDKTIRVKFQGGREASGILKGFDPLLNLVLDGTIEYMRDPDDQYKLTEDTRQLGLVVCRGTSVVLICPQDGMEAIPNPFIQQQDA
UniProt O95777: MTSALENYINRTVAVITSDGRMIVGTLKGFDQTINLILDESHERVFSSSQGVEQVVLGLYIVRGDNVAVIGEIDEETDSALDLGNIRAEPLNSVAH
UniProt P45985: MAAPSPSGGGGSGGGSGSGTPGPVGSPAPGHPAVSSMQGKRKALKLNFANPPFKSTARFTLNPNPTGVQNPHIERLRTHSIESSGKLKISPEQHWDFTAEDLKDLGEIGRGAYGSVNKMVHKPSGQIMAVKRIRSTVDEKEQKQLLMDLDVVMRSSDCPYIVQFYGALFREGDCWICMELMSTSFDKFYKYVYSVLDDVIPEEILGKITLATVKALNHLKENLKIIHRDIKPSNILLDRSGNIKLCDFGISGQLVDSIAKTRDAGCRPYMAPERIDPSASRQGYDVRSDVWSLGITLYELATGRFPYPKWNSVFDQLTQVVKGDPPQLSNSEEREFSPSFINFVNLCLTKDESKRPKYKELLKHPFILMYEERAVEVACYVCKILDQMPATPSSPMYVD
UniProt P49641: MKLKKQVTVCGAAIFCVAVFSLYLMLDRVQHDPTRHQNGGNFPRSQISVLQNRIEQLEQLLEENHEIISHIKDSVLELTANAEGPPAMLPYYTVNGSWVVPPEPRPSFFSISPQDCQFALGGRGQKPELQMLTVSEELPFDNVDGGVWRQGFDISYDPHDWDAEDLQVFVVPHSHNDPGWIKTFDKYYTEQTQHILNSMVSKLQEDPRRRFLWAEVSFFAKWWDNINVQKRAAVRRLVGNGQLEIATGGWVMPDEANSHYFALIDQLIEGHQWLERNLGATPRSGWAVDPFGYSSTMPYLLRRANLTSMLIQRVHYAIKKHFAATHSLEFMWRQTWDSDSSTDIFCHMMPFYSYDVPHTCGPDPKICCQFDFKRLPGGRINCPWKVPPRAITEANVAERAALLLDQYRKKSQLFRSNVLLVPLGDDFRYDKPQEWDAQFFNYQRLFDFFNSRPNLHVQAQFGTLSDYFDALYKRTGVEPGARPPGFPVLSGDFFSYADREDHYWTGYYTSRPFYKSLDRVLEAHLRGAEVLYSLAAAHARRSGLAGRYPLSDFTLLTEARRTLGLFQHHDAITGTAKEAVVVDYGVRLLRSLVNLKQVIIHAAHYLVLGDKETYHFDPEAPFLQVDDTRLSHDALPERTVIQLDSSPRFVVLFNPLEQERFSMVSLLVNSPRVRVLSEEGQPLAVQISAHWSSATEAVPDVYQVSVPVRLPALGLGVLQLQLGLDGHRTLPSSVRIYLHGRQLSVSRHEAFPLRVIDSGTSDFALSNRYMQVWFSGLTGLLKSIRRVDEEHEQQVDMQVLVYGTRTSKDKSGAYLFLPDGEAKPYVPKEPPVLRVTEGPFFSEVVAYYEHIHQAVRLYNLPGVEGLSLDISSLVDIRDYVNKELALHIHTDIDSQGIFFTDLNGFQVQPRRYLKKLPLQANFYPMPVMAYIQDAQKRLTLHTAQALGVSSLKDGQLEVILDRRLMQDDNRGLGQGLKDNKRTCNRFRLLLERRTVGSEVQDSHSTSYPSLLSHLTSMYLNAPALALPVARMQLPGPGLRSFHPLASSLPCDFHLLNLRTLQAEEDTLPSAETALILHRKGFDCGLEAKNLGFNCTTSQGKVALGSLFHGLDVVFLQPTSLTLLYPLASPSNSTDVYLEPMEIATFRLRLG
UniProt Q96S90: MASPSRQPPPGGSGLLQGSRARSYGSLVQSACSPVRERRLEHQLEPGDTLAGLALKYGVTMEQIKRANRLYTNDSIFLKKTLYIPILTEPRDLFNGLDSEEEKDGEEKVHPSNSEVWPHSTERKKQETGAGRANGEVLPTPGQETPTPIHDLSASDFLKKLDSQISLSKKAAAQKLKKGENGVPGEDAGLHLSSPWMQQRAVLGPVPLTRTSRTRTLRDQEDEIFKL
UniProt Q15691: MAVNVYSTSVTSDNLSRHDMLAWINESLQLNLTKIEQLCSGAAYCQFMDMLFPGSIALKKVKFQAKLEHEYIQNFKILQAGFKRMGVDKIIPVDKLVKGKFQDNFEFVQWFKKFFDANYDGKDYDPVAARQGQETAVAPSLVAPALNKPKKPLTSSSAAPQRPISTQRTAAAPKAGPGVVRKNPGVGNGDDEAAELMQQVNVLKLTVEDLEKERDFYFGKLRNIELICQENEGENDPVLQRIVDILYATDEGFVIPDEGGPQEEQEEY
UniProt P02788: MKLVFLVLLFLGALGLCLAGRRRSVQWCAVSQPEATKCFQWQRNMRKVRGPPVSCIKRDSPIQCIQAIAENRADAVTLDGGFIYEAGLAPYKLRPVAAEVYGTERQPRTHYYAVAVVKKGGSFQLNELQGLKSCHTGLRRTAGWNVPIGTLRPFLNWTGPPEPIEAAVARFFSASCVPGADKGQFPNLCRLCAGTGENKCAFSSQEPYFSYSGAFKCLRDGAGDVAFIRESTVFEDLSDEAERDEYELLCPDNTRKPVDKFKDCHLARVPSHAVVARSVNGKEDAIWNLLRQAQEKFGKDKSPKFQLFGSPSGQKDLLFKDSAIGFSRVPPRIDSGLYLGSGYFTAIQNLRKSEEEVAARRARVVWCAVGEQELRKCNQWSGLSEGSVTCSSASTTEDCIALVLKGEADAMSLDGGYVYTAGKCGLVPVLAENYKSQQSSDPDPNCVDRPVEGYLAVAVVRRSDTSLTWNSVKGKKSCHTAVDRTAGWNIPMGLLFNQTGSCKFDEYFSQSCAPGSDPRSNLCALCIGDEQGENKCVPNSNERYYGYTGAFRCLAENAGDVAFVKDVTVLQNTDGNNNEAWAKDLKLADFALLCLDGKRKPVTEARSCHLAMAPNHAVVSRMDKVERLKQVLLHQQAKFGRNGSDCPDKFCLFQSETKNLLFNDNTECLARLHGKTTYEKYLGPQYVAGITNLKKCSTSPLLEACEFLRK
UniProt O15479: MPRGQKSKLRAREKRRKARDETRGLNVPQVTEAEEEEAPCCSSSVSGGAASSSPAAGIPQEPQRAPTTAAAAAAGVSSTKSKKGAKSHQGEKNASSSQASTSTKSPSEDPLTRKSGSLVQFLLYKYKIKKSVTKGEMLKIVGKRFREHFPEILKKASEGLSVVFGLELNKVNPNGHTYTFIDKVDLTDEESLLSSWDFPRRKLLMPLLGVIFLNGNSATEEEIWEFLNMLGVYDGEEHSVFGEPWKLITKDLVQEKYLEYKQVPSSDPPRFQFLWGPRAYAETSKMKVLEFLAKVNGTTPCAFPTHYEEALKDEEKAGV

log2 fold change, inactive:
MANBA (UniProt O00462) 0.055
MANF (UniProt P55145) -0.015
LYRM1 (UniProt O43325) -0.021
MAP7 isoform 7 (UniProt Q14244) -0.192
MARCHF5 (UniProt Q9NX47) 0.04
LTA4H (UniProt P09960) -0.003

These targets were tested with CN(CCOC1=CC=C(C=C1)C[C@H]2C(=O)NC(=O)S2)C3=CC=CC=N3 (racemic) [rosiglitazone] in the same assay as above.
Procedure, shortened: as §1

log2 fold change, inactive:
MAGT1 (UniProt Q9H0U3) 0.008
LRRFIP2 (UniProt Q9Y608) -0.003
MAN2A1 (UniProt Q16706) 0.013
MAPRE2 (UniProt Q15555) -0.038
MACROD1 (UniProt Q9BQ69) 0.103
LYRM7 (UniProt Q5U5X0) 0.009
MAGEC1 (UniProt O60732) -0.121
MAP1S (UniProt Q66K74) 0.052
MAN2C1 isoform 4 (UniProt Q9NTJ4) 0.048
LSM4 (UniProt Q9Y4Z0) -0.009
LSM7 (UniProt Q9UK45) 0.039
LSM8 (UniProt O95777) 0.008
MAP2K4 isoform 2 (UniProt P45985) 0.045
MAN2A2 (UniProt P49641) 0.019
LZTFL1 (UniProt Q9NQ48) 0.064
MACF1 (UniProt H3BQK9) 0.061
LYSMD1 (UniProt Q96S90) 0.062
MAN2B1 (UniProt O00754) 0.011
MAP1B (UniProt P46821) -0.028
MAPRE1 (UniProt Q15691) 0.054
MACF1 (UniProt Q9UPN3) 0.005
LTF (UniProt P02788) -0.021
MAGEB2 (UniProt O15479) -0.101
MANBA (UniProt O00462) 0.001
MANF (UniProt P55145) -0.017
LYRM1 (UniProt O43325) 0.047
MAP7 isoform 7 (UniProt Q14244) -0.216
MARCHF5 (UniProt Q9NX47) 0.028
LTA4H (UniProt P09960) 0.028

From the supplement of paper PMC10849652
